Taken from: PubChem BioAssay AID602196 (INSERM, 2012)

Screen: 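Modifiers of cisplatin sensitivity in A549 cells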
Cell system: human A549 lung cancer cells
Knock-down reagent: siRNA pair against human genes
Time to read-out: 48 h transfection before cisplatin; time from cisplatin to read-out not stated
Conditions: cisplatin at a dose killing half of control-siRNA cells; exact dose and duration not given
Measured: 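Cisplatin cell death as a shift from the 50% death seen with control siRNA; siRNAs toxic or growth-blocking alone scored 0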
Direction: two-siRNA summed score (-2 to +2): higher = both siRNAs protect from cisplatin killing; -2 means both sensitise
Active means: 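Each siRNA scores 0 if harmful alone by LDH or WST-1, otherwise +1 if it reduces and -1 if it increases cisplatin killing; a gene is active when both siRNAs agree (sum +2 or -2)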
Meaning of the calls: active = both siRNAs shift cisplatin killing the same way; inactive = no consistent shift, or siRNA harmful alone
In all, the deposit lists about 23,000 reagents; this is a random part of them. 455 of them (2%) count as active. 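Active includes both protection and sensitisation; some change values fall well beyond the stated -50 to +50 range.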 Further read-outs or replicates are left out here. The record does not give: the amount of reagent.

| Gene | two-siRNA summed score (-2 to +2) | activity call |
| --- | --- | --- |
| NOL6 (nucleolar protein 6) | 1 | inactive |
| TREX1 (three prime repair exonuclease 1) | 0 | inactive |
| BMP7 (bone morphogenetic protein 7) | -1 | inactive |
| OSTF1 (osteoclast stimulating factor 1) | 0 | inactive |
| ZNF613 (zinc finger protein 613) | 0 | inactive |
| LOC442441 | 0 | inactive |
| CCDC198 (coiled-coil domain containing 198) | -1 | inactive |
| THAP5 (THAP domain containing 5) | 0 | inactive |
| ZNF670 (zinc finger protein 670) | 0 | inactive |
| CCR8 (C-C motif chemokine receptor 8) | -1 | inactive |
| TRIML1 (tripartite motif family like 1) | 1 | inactive |
| HSPA9 (heat shock protein family A (Hsp70) member 9) | 0 | inactive |
| CRYBA4 (crystallin beta A4) | -1 | inactive |
| HOMER1 (homer scaffold protein 1) | -1 | inactive |
| POTEA (POTE ankyrin domain family member A (gene/pseudogene)) | 1 | inactive |
| F2RL1 (F2R like trypsin receptor 1) | 0 | inactive |
| FAM199X (family with sequence similarity 199, X-linked) | 1 | inactive |
| TPH2 (tryptophan hydroxylase 2) | 0 | inactive |
| HCP5 (HLA complex P5) | 1 | inactive |
| IGFBP1 (insulin like growth factor binding protein 1) | -1 | inactive |
| SGCE (sarcoglycan epsilon) | 0 | inactive |
| MMS22L (MMS22 like, DNA repair protein) | 0 | inactive |
| OR14J1 (olfactory receptor family 14 subfamily J member 1) | 0 | inactive |
| GPNMB (glycoprotein nmb) | -1 | inactive |
| FAM20C (FAM20C golgi associated secretory pathway kinase) | 0 | inactive |
| PARP11 (poly(ADP-ribose) polymerase family member 11) | 0 | inactive |
| GUCA2B (guanylate cyclase activator 2B) | -1 | inactive |
| TNFRSF10A-DT (TNFRSF10A divergent transcript) | 0 | inactive |
| MEF2D (myocyte enhancer factor 2D) | 0 | inactive |
| SPRR2A (small proline rich protein 2A) | 0 | inactive |
| TRPC6 | 0 | inactive |
| LOC94105 | 1 | inactive |
| MED13 (mediator complex subunit 13) | 0 | inactive |
| FLJ00312 | 1 | inactive |
| CAV3 (caveolin 3) | -1 | inactive |
| OVCH1 (ovochymase 1) | 1 | inactive |
| FOXN1 (forkhead box N1) | 0 | inactive |
| SLC6A6 | 0 | inactive |
| ZNF547 (zinc finger protein 547) | 0 | inactive |
| LOC401721 | 0 | inactive |
| ZNF215 (zinc finger protein 215) | 1 | inactive |
| PRR5L (proline rich 5 like) | 0 | inactive |
| LCP1 (lymphocyte cytosolic protein 1) | 1 | inactive |
| MLF1 (myeloid leukemia factor 1) | 0 | inactive |
| LOC441700 | 0 | inactive |
| ANGPTL5 (angiopoietin like 5) | -1 | inactive |
| TNIK (TRAF2 and NCK interacting kinase) | 1 | inactive |
| HSPA1B (heat shock protein family A (Hsp70) member 1B) | 0 | inactive |
| BLZF1 (basic leucine zipper nuclear factor 1) | 0 | inactive |
| PRCC (proline rich mitotic checkpoint control factor) | 0 | inactive |
| CENPT (centromere protein T) | 0 | inactive |
| IL12B-AS1 (IL12B antisense RNA 1) | 1 | inactive |
| HTR5A (5-hydroxytryptamine receptor 5A) | 1 | inactive |
| WBP2 (WW domain binding protein 2) | 0 | inactive |
| ZNRD2 (zinc ribbon domain containing 2) | 0 | inactive |
| HADH (hydroxyacyl-CoA dehydrogenase) | 1 | inactive |
| H2BC9 (H2B clustered histone 9) | 0 | inactive |

5 entries from above, set out differently:
{"Gene":"TREX1 (three prime repair exonuclease 1)","two-siRNA summed score (-2 to +2)":0,"activity call":"inactive"}
{"Gene":"BMP7 (bone morphogenetic protein 7)","two-siRNA summed score (-2 to +2)":-1,"activity call":"inactive"}
{"Gene":"OSTF1 (osteoclast stimulating factor 1)","two-siRNA summed score (-2 to +2)":0,"activity call":"inactive"}
{"Gene":"ZNF613 (zinc finger protein 613)","two-siRNA summed score (-2 to +2)":0,"activity call":"inactive"}
{"Gene":"LOC442441","two-siRNA summed score (-2 to +2)":0,"activity call":"inactive"}
